Reference: article PMC10823689

What was measured:
[1] = molecular target: T1, PRDX6 (overexpression plasmid, HEK293T) (UniProt O35244); experiment: co-IP; HEK293T cells transfected with overexpression plasmids (PRDX6, ERK, P38 or negative control), 48 h; co-immunoprecipitation and western blot
T1 sequence: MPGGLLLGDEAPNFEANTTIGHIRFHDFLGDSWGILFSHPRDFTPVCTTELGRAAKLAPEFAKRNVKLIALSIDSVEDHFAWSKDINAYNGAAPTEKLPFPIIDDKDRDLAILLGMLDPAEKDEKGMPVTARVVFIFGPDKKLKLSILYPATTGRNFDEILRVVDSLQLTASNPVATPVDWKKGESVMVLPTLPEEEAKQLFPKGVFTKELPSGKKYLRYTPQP

[2] = molecular target: T2, Peroxiredoxin 6 (PRDX6) (rat (endogenous in CTX-TNA2)) (UniProt O35244); experiment: co-IP; lysates of wild-type CTX-TNA2 cells, control and after OGD/R; antibodies precoupled to protein G beads, overnight 4 °C; western blot
T2 sequence: T1 sequence

[3] = molecular target: T2, Peroxiredoxin 6 (PRDX6) (rat (endogenous in CTX-TNA2)); experiment: condition: only cells treated with U0126 (10 µM) after OGD; co-IP; lysates of wild-type CTX-TNA2 cells after OGD/R treated with U0126 (10 µM); western blot

Substance | binding [1] | binding [2] | binding [3]
ERK (overexpression plasmid, HEK293T) | binds |  | 
ERK (rat (endogenous in CTX-TNA2)) |  | binds | no binding
P38 (overexpression plasmid, HEK293T) | binds |  | 

These are yes or no findings as the source states them, for the method shown. In cells and extracts the contact can be indirect. For some of these results: A result given as binding can be weak or reduced; the word gives no strength.
